Test results published in PubChem BioAssay AID1671190 (National Center for Advancing Translational Sciences (NCATS), 2021).
“And” between values parts separate entries of the source, which are not always exact repeats. Identical values can stand only once. About 6,100 (1.1%) of roughly 580,000 compounds were called active. Inconclusive results, whose numbers are uncertain, are shown with a selection of clear calls. The call rests on the fitted dose curve; in most records, active means well fitted inhibition curve with a large enough effect; inconclusive means small, poorly fitted or top-dose-only effect, or another doubt; inactive means no such curve, though single readings can be large or run the other way. Where the call is inconclusive, the potency comes from a doubtful curve fit.
Potency means the concentration at half of the fitted maximal effect.

Chains of the proteins cited; added tags and fusions are not shown. Lines headed by an entry give the natural chain unless they say otherwise; changes in a name come on top.
UniProt P18054: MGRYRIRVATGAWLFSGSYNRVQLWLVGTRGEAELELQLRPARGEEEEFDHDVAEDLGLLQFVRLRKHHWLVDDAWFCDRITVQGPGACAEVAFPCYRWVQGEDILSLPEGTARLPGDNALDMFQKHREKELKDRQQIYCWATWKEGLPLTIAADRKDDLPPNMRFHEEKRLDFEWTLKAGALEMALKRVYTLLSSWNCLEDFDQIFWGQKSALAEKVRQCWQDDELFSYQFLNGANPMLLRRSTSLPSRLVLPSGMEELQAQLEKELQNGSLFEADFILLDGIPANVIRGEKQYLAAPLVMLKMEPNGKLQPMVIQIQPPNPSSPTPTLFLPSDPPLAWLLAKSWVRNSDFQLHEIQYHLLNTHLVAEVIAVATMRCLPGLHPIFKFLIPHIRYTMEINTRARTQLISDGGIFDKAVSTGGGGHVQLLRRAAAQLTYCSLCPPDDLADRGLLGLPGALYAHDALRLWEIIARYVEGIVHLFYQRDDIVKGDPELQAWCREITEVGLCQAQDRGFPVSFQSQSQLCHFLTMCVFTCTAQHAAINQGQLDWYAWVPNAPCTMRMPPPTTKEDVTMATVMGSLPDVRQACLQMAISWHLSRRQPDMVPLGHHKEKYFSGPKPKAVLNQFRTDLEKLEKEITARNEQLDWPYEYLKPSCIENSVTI

What follows are molecules tested against Polyunsaturated fatty acid lipoxygenase ALOX12 (Homo sapiens) (UniProt P18054) (assay: Primary qHTS assay for inhibitors of human arachidonate 12S-lipoxygenase (ALOX12): Round 2). Settings: purified 12hLO, xylenol orange hydroperoxide absorbance; series mostly up to 108 µM.
Outline: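 Purified human 12hLO at 150 nM in 25 mM Hepes, 0.01% Triton X-100, pH 7.0, preincubated 15 min at room temperature with compound. Reaction started with 40 uM arachidonic acid, 30 min at room temperature. Hydroperoxide measured by Fe-xylenol orange, 573/405 nm absorbance ratio.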
In the case of `COc1ccccc1NC(=S)NC(=O)c1ccc(-c2ccc(Cl)cc2)o1`, the Potency was inconclusive: 20 µM [inhibitor, partial curve, poor fit]. In the case of `CCCN1CCS(=O)(=O)N(Cc2cn(Cc3ccccc3)nn2)C(C(=O)OC)C1` (configuration not stated), the Potency was inconclusive: 20 µM [inhibitor, partial curve, poor fit]. For `Cc1noc(C)c1-c1cc2c(cc(C)n2CCN(C)C)c(-c2ccsc2)n1`, the Potency was inconclusive: 100 µM [inhibitor, partial curve, poor fit]. With `CCCn1nc(C(=O)NCC(C2CC2)N(C)C)c2ccccc2c1=O` (configuration not stated) the Potency was “inactive”. With `CCC(=O)N1CCN(C2CCN(CCc3ccccc3)C2=O)CC1` (configuration not stated) the Potency was inconclusive: 12.6 µM [inhibitor, partial curve, poor fit]. In the case of `Cc1cc(C)c(NC(=O)c2sc3nc(C)[nH]c(=O)c3c2C)c(C)c1`, the Potency was “inactive”. In the case of `CSc1ccc(Cl)c(C(=O)N2CCN(Cc3cc(=O)n4ccsc4n3)CC2)c1`, the Potency was inconclusive: 14.1 µM [inhibitor, full curve]. In the case of `Cc1cc(C)c(NC(=O)CN(C)S(=O)(=O)c2ccc3c(c2)CCC(=O)N3)c(C)c1`, the Potency was inconclusive: 2.82 µM [inhibitor, full curve, poor fit]. With `CC(C)(C)n1ncc2c(=O)n(CC(=O)c3ccc(Cl)cc3)cnc21` the Potency was “inactive”. With `CCN(C(=O)c1ccc2c(c1)N(S(C)(=O)=O)CC2)c1ccccc1` the Potency was “inactive”. `CCCCN(C)C(=S)Nc1ccc(Oc2ccccc2)cc1` was tested, and the Potency was inconclusive: 44.7 µM [inhibitor, partial curve, poor fit]. With `CCOc1ccc(NC(=O)c2ccccc2NC(=O)CNC2CCCC(C)C2C)cc1` (configuration not stated) the Potency was “inactive”. With `CCOC(=O)[C@H](CCc1ccccc1)N[C@@H](C)C(=O)N1Cc2cc(OC)c(OC)cc2C[C@H]1C(=O)O` the Potency was inconclusive: 35.5 µM [inhibitor, partial curve, poor fit] and inconclusive: 18.1 µM [inhibitor, single point]. In the case of `C/C(CC(=O)Nc1cccc(Cl)c1Cl)=N\NC(=O)c1ccccc1C`, the Potency was “inactive”. `COc1ccc(CNS(=O)(=O)NCc2ccc(OC)c(OC)c2)cc1` was tested, and the Potency was “inactive”. For `CCc1cccc(NC(=O)CCS(=O)(=O)c2ccc(Br)cc2)c1`, the Potency was “inactive”. In the case of `COC(OC)C1Nc2ccccc2C(=O)N1c1ccc(F)cc1` (configuration not stated), the Potency was inconclusive: 7.94 µM [inhibitor, partial curve, poor fit]. In the case of `CC(C)c1ccc(C(=O)CC2(O)C(=O)N(CN3CCOCC3)c3ccccc32)cc1` (configuration not stated), the Potency was inconclusive: 44.7 µM [inhibitor, partial curve, poor fit]. `CCn1c(COc2ccc(Cl)cc2)nnc1SCc1nc2ccccc2[nH]1` was tested, and the Potency was “inactive”. `CCCSc1nnc(NC(=O)c2sc3nc(-c4cccs4)ccc3c2N)s1` was tested, and the Potency was inconclusive: 39.8 µM [inhibitor, partial curve, poor fit]. In the case of `CCOc1ccc(NS(=O)(=O)c2cc3c(cc2Cl)NC(=O)CO3)cc1`, the Potency was inconclusive: 79.4 µM [inhibitor, partial curve, poor fit]. For `CCc1ccc(CN2CCC(n3nccc3NC(=O)c3ccccc3C)CC2)cc1`, the Potency was “inactive”. With `CCc1ccc(OCC(=O)Nc2ccc(S(=O)(=O)N3CCOCC3)cc2)cc1` the Potency was inconclusive: 89.1 µM [inhibitor, single point]. `O=C1c2c(nc(CNc3ccc(OC(F)(F)F)cc3)n2Cc2ccccc2)NCCN1CCN1CCOCC1` was tested, and the Potency was inconclusive: 28.2 µM [inhibitor, full curve, poor fit]. With `c1cc2c3c(cccc3c1)NC1(CCCC1)N2` the Potency was inconclusive: 89.1 µM [inhibitor, partial curve, poor fit]. For `O=C(C[C@@H]1CC=CCCC(=O)O[C@H](c2ccccc2)CNC1=O)NCc1ccc(Cl)cc1`, the Potency was “inactive”. `CCC(C)c1ccc(S(=O)(=O)N2CCN(C(C)CC(=O)O)CC2)cc1` (configuration not stated) was tested, and the Potency was “inactive”. In the case of `COc1ccc(CCNC(=O)Cn2c(=O)n(Cc3ccco3)c(=O)c3ccc(Cl)cc32)cc1OC`, the Potency was “inactive”. `Cc1ccc(C2=NOC(=O)/C2=C\c2ccccc2)cc1` was tested, and the Potency was inconclusive: 3.98 µM [inhibitor, full curve, poor fit]. With `Cc1ncsc1CN1C(=O)CO[C@H](c2ccc(NC(=O)c3cccnc3)cc2)[C@H]1CO` the Potency was “inactive”. `COc1cccc(C2NC(=O)c3sc(=S)n(-c4ccccc4)c3N2)c1` (configuration not stated) was tested, and the Potency was inconclusive: 44.7 µM [inhibitor, partial curve, poor fit]. For `COc1ccccc1N1CCN([C@H]2[C@@H]3OC[C@@H](O3)[C@@H](NCc3ccco3)[C@@H]2O)CC1`, the Potency was “inactive”. For `CNC(=O)C(C)(C)N1CCC[C@H]1C(=O)N1CCCC1`, the Potency was inconclusive: 6.31 µM [inhibitor, full curve, poor fit]. For `CN(C)S(=O)(=O)c1cccc(COc2cccnc2[N+](=O)[O-])c1`, the Potency was “inactive”. For `O=C1Oc2ccccc2C(=O)/C1=C/c1ccccc1O`, the Potency was inconclusive: 56.2 µM [inhibitor, partial curve, poor fit]. `O=C(O)c1cc([N+](=O)[O-])c(Nc2cccc3ccccc23)c([N+](=O)[O-])c1` was tested, and the Potency was inconclusive: 1.58 µM [inhibitor, full curve, poor fit]. For `Cc1ccc(NC(=S)c2ccncc2)c(C)c1`, the Potency was “inactive”. In the case of `COc1cc(C)c(NC2CCOC2=O)cc1OC` (configuration not stated), the Potency was inconclusive: 31.6 µM [inhibitor, partial curve, poor fit]. For `CC(NC(=O)Nc1ccc2c(c1)OCCO2)c1ccc(Cl)s1` (configuration not stated), the Potency was “inactive”. With `Cc1ccc(NC(=O)c2sc3ncn(CC(=O)N4CCN(c5ccccn5)CC4)c(=O)c3c2C)cc1` the Potency was “inactive”. With `CCn1cc(C(=O)N2CCN(c3ccc(C)cc3)C(C)C2)c(=O)c2cc(S(=O)(=O)N3CCCC3)ccc21` (configuration not stated) the Potency was inconclusive: 22.4 µM [inhibitor, partial curve, poor fit]. In the case of `Cc1ccc(S(=O)(=O)CCc2ccncc2)cc1`, the Potency was inconclusive: 5.62 µM [inhibitor, full curve]. With `Cc1cc(NC(=O)NCCNc2ccc(C#N)cn2)n(-c2ccccc2)n1` the Potency was “inactive”. For `Cc1cccc2cc(C#N)c(NCCNC(=S)NCCCN3CCOCC3)nc12`, the Potency was “inactive”. For `Cc1cccc(C)c1NC(=O)CN1CCN(C(=O)CN(C)Cc2cnn(-c3ccccc3)c2)CC1`, the Potency was inconclusive: 50.1 µM [inhibitor, partial curve, poor fit]. For `COc1cc(C(=O)NCC2CCCCC2)cc(OC)c1OC`, the Potency was inconclusive: 70.8 µM [inhibitor, partial curve, poor fit]. With `CC(=O)c1c2c(cc3ccc(N(C)C)cc13)CCC2` the Potency was inconclusive: 8.91 µM [inhibitor, partial curve, poor fit]. For `CN(CC(=O)Nc1ccc(Cl)c(Cl)c1)C(=O)CC1OC(=O)c2ccccc21` (configuration not stated), the Potency was inconclusive: 79.4 µM [inhibitor, single point]. `Cc1[nH]c2ccccc2c1C(=O)COC(=O)c1ccccn1` was tested, and the Potency was inconclusive: 0.282 µM [inhibitor, full curve, poor fit]. For `Cc1cccc(OCC(O)Cn2c(N)nc3c2c(=O)n(C)c(=O)n3C)c1` (configuration not stated), the Potency was “inactive”. In the case of `O=[S+]([O-])(NCC1CN(Cc2cccc(Cl)c2)CC12CN(c1ccccc1)C2)c1ccccc1` (configuration not stated), the Potency was inconclusive: 50.1 µM [inhibitor, partial curve, poor fit]. With `CC(NC(=O)c1ccc(SC(F)F)cc1)c1ccccn1` (configuration not stated) the Potency was “inactive”. `CCOC(=O)C1=C(c2ccccc2)NC(=S)NC1c1ccccc1` (configuration not stated) was tested, and the Potency was inconclusive: 89.1 µM [inhibitor, single point]. For `CCc1ccc(CN2CCCC(C(=O)Nc3ccccc3-c3ccc(OC)cc3)C2)o1` (configuration not stated), the Potency was “inactive”. `COc1ccccc1-n1c(=O)c2sccc2n(CC(=O)NC(C)CCc2ccccc2)c1=O` (configuration not stated) was tested, and the Potency was “inactive”. For `CCc1ccccc1NC(=S)NCC1CCN(c2ccc(OC)cc2)C1` (configuration not stated), the Potency was inconclusive: 5.01 µM [inhibitor, full curve, poor fit]. With `COc1cccc(/C=C2\SC(=O)NC2=O)c1OCc1ccc(C(=O)O)cc1` the Potency was inconclusive: 50.1 µM [inhibitor, partial curve, poor fit]. In the case of `COCC(=O)N1CCN(C(=O)c2cccc(F)c2)C[C@H]1C(=O)OC`, the Potency was “inactive”. For `Cc1cccc(NC(=O)CN(C)C(=O)Cc2ccc3ccccc3c2)c1C`, the Potency was inconclusive: 7.08 µM [inhibitor, partial curve, poor fit]. `O=C(Nc1ccc(F)cc1)c1csc2c1CCCCC2` was tested, and the Potency was inconclusive: 112 µM [inhibitor, single point]. `OC(c1ccc(Cl)c(F)c1)c1ncc(-c2ccc(Oc3ccccc3)cc2)[nH]1` (configuration not stated) was tested, and the Potency was inconclusive: 126 µM [inhibitor, partial curve, poor fit]. For `COc1ccc(S(=O)(=O)NCc2ccc(C(=O)NCCCN3CC(C)CC(C)C3)cc2)cc1` (configuration not stated), the Potency was “inactive”. With `Nc1c(Cl)cc(C23CC4CC(CC(C4)C2)C3)cc1Cl` the Potency was “inactive”. With `Cc1cc(C)c2c(N)c(C(=O)N3CCN(c4ncccn4)CC3)sc2n1` the Potency was inconclusive: 35.5 µM [inhibitor, partial curve, poor fit]. `O=C(Nc1cccnc1)c1cc(-c2ccc(Br)cc2)on1` was tested, and the Potency was inconclusive: 100 µM [inhibitor, single point]. `c1ccc(CNCCCN2CCCCC2)cc1` was tested, and the Potency was inconclusive: 35.5 µM [inhibitor, partial curve, poor fit]. For `C/C(O)=C1\C(=O)[C@@H]2[C@H]3c4c[nH]c5cccc(c45)C[C@H]3C(C)(C)N2C1=O`, the Potency was inconclusive: 8.91 µM [inhibitor, partial curve, poor fit].
